About 3,700 (7%) of roughly 53,000 sequences were called active.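 The calls were made as follows: active = gene knockdowns whose robust z-score for IL-1 alpha signal is at least 2 or at most -2, so actives lie on both sides; inactive = the rest.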 The list shows a part of the results.

This assay can be described thus: Components of the Cytosolic LPS Sensing Pathway: Gene Identification via Genome-wide siRNA Screen.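 Also: robust z of the log signal after scaling to non-targeting control siRNA wells of the plate.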 As to conditions: RAW264.7 macrophages, IL-1a HTRF, actives lie on both sides, screened at 100 nM (by protocol), cells primed 5 h with Pam3CSK4 first. The method, boiled down: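 Mouse macrophage line RAW264.7 is transfected with siRNA (100 nM final), grown 48h, primed with TLR ligand Pam3CSK4 5 h and given intracellular LipidA 24 h. IL-1a in supernatant is read by HTRF and viability by luminescence.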
For orientation: Time-resolved FRET reads energy transfer from a long-lived donor to a nearby acceptor.
Take GGAUUAUUUUAAGUGGAGATT against Dna2: the z-score was inactive: -0.103.

As to GGACCUGUUUGAAGAAAAGTT against Gnai2, the z-score is inactive: -0.985.

Consider GGGUAUAUUUCCUUCCAGCTT against Dock4, for which the z-score was inactive: -0.105.

For the sequence GGUACUCACAUCUCCAAAGTT against Zfp948, the z-score is inactive: -0.881.

GGGAACUGUACUGUAAUUUTT against Olfr615: the z-score was inactive: 0.0311.

Regarding GGGCAACUAUCCCGUUACUTT against Vps11, the z-score is inactive: -0.211.

For the sequence CCAGUAUGGAAGGUACUCATT against Scfd1, the z-score is inactive: -0.875.

Regarding GGGAUAGCACAAGUGAGUCTT against Slc13a3, the z-score is inactive: -0.901.

Turning to GGAAGAUCCCAACAGUUUGTT against Htra1, the z-score is inactive: 1.1.

GGGAGUAUAAGAGAAACCATT against Chgb: the z-score was inactive: -0.357.

For the sequence CGAGGUUCGGACCUGUAAATT against Nabp2, the z-score is inactive: -0.958.

Turning to CGGCAGCAGAAUAAAUAUGTT against Il12b, the z-score was inactive: 0.407.

Take GGAGAGCUGAAAGAUUUAATT against Dlec1: the z-score is inactive: 0.462.

Take GGUUGUUCAGAUCUUCUGATT against Nlrp3: the z-score was inactive: -0.103.

For GGAAGAAAGGUCUAGAAGCTT against Tor2a, the z-score was inactive: 0.33.

Consider GGUCUUCUACUCCUUCUCATT against Slc6a19, for which the z-score is active: -2.09.

Turning to CCAUUUACCUCACUUGUUUTT against Asb8, the z-score is inactive: -0.511.

With GGUUAAAACCUCUUUCUGATT against Adpgk, the z-score was inactive: -1.33.

In the case of GGUCAAUGUUCACCAGCCATT against Megf11, the z-score is inactive: 0.627.

Regarding GGAUGGUACAGGUCUGGUGTT against Fgfr3, the z-score was active: 4.82.

Consider GGCCACAGAUCUUCUGGUGTT against Calml4, for which the z-score is inactive: 1.08.

On to GGUGAAUUAUUGCUUUGAGTT against Adprm, for which the z-score was inactive: -0.376.

For the sequence GGGUUACCCAGCAUUCUUUTT against Pex26, the z-score was inactive: -0.811.

For GGAUGAAGGCUUCUCUGCUTT against Psenen, the z-score was inactive: -0.353.

As to GGAUAUUACUCUGUUGAAATT against Ppp2ca, the z-score is inactive: 0.193.

As to GGUGAGAUGGUUCAACAUGTT against Olfr77, the z-score was inactive: 1.7.

For CCUAAUACCUUCAGUGUUCTT against Ptcd3, the z-score was inactive: 0.865.

Take GGAAAUGAACAGAAAUCACTT against Wdr4: the z-score was inactive: -0.926.

Consider GGAGCUUUAUUUUAUACCUTT against Ppil2, for which the z-score was inactive: 0.898.

GCAUGAGUUAUCAUAAUCATT against Itgb2: the z-score was inactive: 1.04.

Turning to CGGUCUAAAUUUCCGGUCATT against Elane, the z-score was inactive: -0.205.

As for GGAUGACGAUUAUAGAGAATT against Cap2, the z-score is inactive: -0.606.

On to GGGAAAAAUAAACUAAGUGTT against Rwdd1, for which the z-score is inactive: -1.43.

For CGUGAUUGAAUCUCAGGAGTT against Spata24, the z-score is active: -2.14.

In the case of GGUGAGCGAGAUAAGAAGCTT against Ube2s, the z-score is inactive: 0.852.

In the case of GGAUAAACUGUAUGGCUUCTT against Mmp9, the z-score was inactive: 1.24.

For CGUACGCAGAAAUGCCUAGTT against Ssu72, the z-score is inactive: 0.865.

For the sequence GGACGUAGCUUGGAAAGAUTT against Flcn, the z-score was inactive: -0.813.

Regarding GGCUAUGAAAAGAAGCCCUTT against Nebl, the z-score is inactive: 0.634.

For CGGAGCCUAUAACAUAUUUTT against Nid1, the z-score is inactive: 0.0328.

GGCUGAUUCUCCUUCUACCTT against Capn15: the z-score was inactive: -1.02.

On to GGUCAGCAUCACCUACGAUTT against Prss8, for which the z-score is inactive: -0.688.

Regarding GGUAGUGGAGCUGAAUGUUTT against Kctd8, the z-score was inactive: 0.113.

Turning to GGAUUUCUGUGUGUCCACUTT against Nav3, the z-score was inactive: -0.131.

On to CCAACACGACGCAGGAAAUTT against Nr0b1, for which the z-score is inactive: 1.33.

GGAUGAUCGCUUUUGCUAUTT against Caly: the z-score was active: 2.02.

Consider GGUUGAGAACGAAAACCACTT against Septin11, for which the z-score is inactive: -0.0425.

For GCUUGUUGAUCAAUAACCCTT against Cntn4, the z-score was inactive: -0.356.

In the case of GUGAUGACUGAGCUUCUAATT against Olfr1446, the z-score was inactive: -1.9.

CCAAUAAGUGACCUUUUUUTT against Tmprss11b: the z-score is inactive: -0.989.

Regarding GGAUUUUGACAACAUCUCCTT against Pak7, the z-score is inactive: 0.406.

Consider GGGAGAUGAAGAACUAUGUTT against Hmgb2, for which the z-score is inactive: -0.459.

Take GGAGCAGCAGAAGGUUCUUTT against Olfr434: the z-score is inactive: 1.27.

With GGGUCCUUUCAAAUAUAUATT against Necap1, the z-score is inactive: -1.03.

For the sequence CGUACUCUAUGAGGUGCCATT against Dennd5a, the z-score was inactive: 0.773.

Turning to GGAACUCUUGGAAGAAUAUTT against Katnal1, the z-score is inactive: -0.018.

Turning to GCUUGGGUAAUAGAAAUCATT against Btnl1, the z-score was inactive: 0.6.

Consider CCUAUGGAGAGUAUGACUATT against Khdrbs3, for which the z-score was inactive: -0.638.

For the sequence CCAAUGAAACCUGCUUGGGTT against Cd200r2, the z-score is inactive: 1.11.

Take GAUAUACAGCAUACUCUCATT against Olfr1087: the z-score is inactive: 1.04.

As for “GGUCAGGAAAUAUUCUUAATT against A630001G21Rik”, the z-score is inactive: 0.346.

CGAGUCUUGUGGAGUUUCGTT against Spint2: the z-score was inactive: 0.78.

With GGCCUGAACCUCUUUCAAGTT against Mep1a, the z-score is inactive: 0.968.

On to GGGACAAUUCAGGAUGGAGTT against Ift88, for which the z-score was inactive: 0.0559.

With GGAGACCUAAAGAUGAUCATT against Mmab, the z-score was inactive: 0.385.

Turning to GGCGCAUAGGAAUGUGCUUTT against Mynn, the z-score was inactive: 0.966.

As to GCAUUGUGUGGUUUUGCCATT against Myog, the z-score is inactive: 0.614.

As to CGACAAGCUGUACCUCUACTT against Rfx5, the z-score is active: 3.41.

For the sequence GGUCUGAAGAAGAUUCUGGTT against Unc45a, the z-score was inactive: 0.33.

In the case of GGUCGUUUCUAUGAUUGGCTT against Olfr589, the z-score was inactive: 0.568.

As for GGUUGAAUCAAGAGGAAAATT against Tmem183a, the z-score is inactive: 1.27.

As to GUUGUGUUCUGAUUGUUUUTT against Olfr1020, the z-score is active: 2.03.

As for GCGACUGUGGUGGUUACAUTT against Bcas2, the z-score was inactive: 0.444.

In the case of CCCUGGUACAUUUCACGUCTT against Defb50, the z-score was inactive: 0.0211.

In the case of GGCCAUACCUCCCUUUGAATT against Polr1b, the z-score is inactive: -1.02.

For GGAUAUGUCGGAAAAAGCCTT against Cfh, the z-score is inactive: 0.271.

Take GGCCUUCCUGCUCAAGUUUTT against Ano1: the z-score is inactive: 1.04.

As for GCGUUAUAGCCUCAGUGUGTT against Olfr605, the z-score is inactive: 1.04.

GGCCUAUGCACAACUGAAGTT against Slc6a19: the z-score was inactive: 0.828.

Regarding GGGCAUUCUACUUCAGAGATT against Orc2, the z-score was inactive: -1.47.

On to GGCCAGCGAGAGAGAGAAATT against Msgn1, for which the z-score is inactive: 0.371.

For GGUGGUUGAACAUAAGACUTT against Zfp688, the z-score was inactive: 1.27.

As to GGGUAGUAACAAUUAGAUCTT against Tppp, the z-score is inactive: 0.0656.

For the sequence GCACUUCGAAUGUACUGUCTT against Gnrh1, the z-score is inactive: -0.656.

Take GGCCUGUAGUCAAUGGAAATT against Magi2: the z-score is inactive: -0.382.

Consider CGGAAUUUUGCCUUCAUGATT against Iars2, for which the z-score was inactive: -1.64.

GGAUUAAACAAGAACAAGATT against Cnksr2: the z-score is inactive: 0.496.

Regarding GGUUCUCUAUUUUCAGCACTT against Inmt, the z-score was inactive: -0.848.

Regarding GGGCAAACAUUAUAAAUUGTT against Prl8a9, the z-score was inactive: 1.46.

GGUACUUGUACUAAUCGCUTT against Lpcat2: the z-score was inactive: 0.683.

GGAAUGUAUGGUGAGACUUTT against Ap4e1: the z-score was inactive: 1.25.

As to GGACUGACCCUGUAAAGAUTT against Zfp296, the z-score is inactive: -0.574.

Turning to GGCUUCAAGCUAUUCAUGATT against Dgkb, the z-score is inactive: 0.126.

As for GGGUUUAGCUCACUGAGUATT against Tm4sf5, the z-score was inactive: -1.53.

Regarding CCGGCUUCUGGUACUAUACTT against Plekhn1, the z-score is inactive: 0.351.

As for GGGAUCUCAUUGCACAUUUTT against Nudt18, the z-score is inactive: -0.859.

For GGCAAACAGACUGAGUUUATT against Tsc2, the z-score was inactive: 1.3.

Turning to CUAUCAAGGGCAGUCAACUTT against Olfr1208, the z-score was active: -2.38.

On to GGCGAGAAACCUUUCAGAUTT against Zic4, for which the z-score was active: 4.72.

For GGGCGAAUUUAACACAGUGTT against Txnrd1, the z-score is inactive: -1.8.

Take GGGAAAAUUAGAAGUCAGGTT against Dscam: the z-score was inactive: -0.562.

As for CCAAUGUGUUUGCCAAUAGTT against Psph, the z-score is inactive: 1.62.

As to GGUUGAAGAAUAGAAUGUCTT against Cda, the z-score is inactive: -1.66.

On to GCUGGUUUUUGUCAUAAACTT against Olfr1316, for which the z-score was inactive: -0.825.

In the case of GGAUGCUAAUUUAUGUGCUTT against Senp7, the z-score was inactive: 1.33.

With CGAUGGCUCUACCAAAGGCTT against Urod, the z-score is inactive: 0.358.

Regarding CCUGAUAUACAAUCUAACCTT against Fv4, the z-score is inactive: 1.89.

Turning to GGUAUCGUAUAUGGAGAUCTT against Kif13a, the z-score is active: 2.12.
